Test results as given in the supplement of paper PMC7877785.
± gives the uncertainty stated by the source. Many entries were measured with a wide error.

Experiment: self-splicing fitness, log relative to wild type (ln ratio); higher = more splicing; Tetrahymena group I intron in knt gene, E. coli kanamycin selection, DiMSum; sequences stand for … in CUCUCU…GGAGGGAAAAGUUAUCAGGCAUGCACCUGGUAGCUAGUCUUUAAACCAAUAGAUUGCAUCGGUUUAAAAGGCAAGACCGUCAAAUUGCGGGAAAGGGGUCAACAGCCGUUCAGUACCAAGUCUCAGGGGAAACUUUGAGAUGGCCUUGCAAAGGGUAUGGUAAUAAGCUGACGGACAUGGUCCUAACCACGCAGCCAAGUCCUAAGUCAACAGAUCUUCUGUUGAUAUGGAUGCAGUUCACAGACUAAAUGUCGGUCGGGGAAGAUGUAUUCUUCUCAUAAGAUAUAGUCGGACCUCUCCUUAAUGGGAGCUAGCGGAUGAAGUGAUGCAACACUGGAGCCGCUGGGAACUAAUUUGUAUGCGAAAGUAUAUUGAUUAGUUUUGGAGUACUCGUGGUCG
Summary of the method: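 A randomised library covering all eight P1ex-region intron nucleotides was built with the intron in the knt kanamycin-resistance gene on pET-22b(+) and held in E. coli BL21(DE3). Cells were grown overnight at 37°C or 30°C on LB agar, with or without 25 μg/mL kanamycin, plus 100 μg/mL carbenicillin, 50 μM IPTG and 0.2% rhamnose, and pooled colonies were amplicon-sequenced on an Illumina HiSeq 2500. DiMSum fitness is the error-weighted combination of wild-type-normalised replicate fold changes, kanamycin versus none.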

Row | Sequence | self-splicing fitness (ln) (30 °C) | self-splicing fitness (ln) (37 °C)
1 | CGAGAGCAAUAUUACGAGUA | -1.81 ± 0.73 | -1.93 ± 0.57
2 | UCUAAGCAAUAUUACGCAAU | -3.57 ± 1 | 
3 | UCAUAGCAAUAUUACGGUAC |  | -3.21 ± 0.33
4 | UAGUAGCAAUAUUACGGUAC |  | -1.39 ± 0.62
5 | UGACAGCAAUAUUACGAGAA | -3.25 ± 0.54 | 
6 | GCUAAGCAAUAUUACGGACC | -3.7 ± 1.1 | 0.498 ± 0.51
7 | GAUCAGCAAUAUUACGAUUC | -3.05 ± 0.38 | -1.79 ± 0.27
8 | UAAGAGCAAUAUUACGUGGA | -2.84 ± 0.28 | -2.14 ± 0.3
9 | CUAAAGCAAUAUUACGGCUC |  | -3.01 ± 0.53
10 | GGCGAGCAAUAUUACGCCCU | -1.91 ± 0.66 | -1.64 ± 0.84
11 | UAUAAGCAAUAUUACGGGCC | -2.99 ± 0.31 | -2.7 ± 0.62
12 | GUGAAGCAAUAUUACGCGAU | -0.828 ± 1 | 
13 | GCUGAGCAAUAUUACGAGUC | -3.39 ± 0.53 | 
14 | CUCCAGCAAUAUUACGUCGG | -3.14 ± 0.15 | -2.36 ± 0.15
15 | CCAUAGCAAUAUUACGGAGC | -4.61 ± 0.72 | 
16 | UGUGAGCAAUAUUACGUAUC | -3.75 ± 0.37 | -2.3 ± 0.32
17 | UAGGAGCAAUAUUACGCCCC | -2.79 ± 1.2 | 
18 | GAAGAGCAAUAUUACGCUAA | -4.73 ± 1 | 
19 | GGUGAGCAAUAUUACGUUUG |  | -3.38 ± 0.6
20 | CGUGAGCAAUAUUACGCCGC | -3.52 ± 1.1 | -1.83 ± 1.1

Row | Sequence | self-splicing fitness (ln) (30 °C) | self-splicing fitness (ln) (37 °C)
21 | CCGAAGCAAUAUUACGACCC | -3.51 ± 0.74 | 0.475 ± 0.81
22 | UAGAAGCAAUAUUACGCCAC | -3.52 ± 0.54 | 
23 | UCGCAGCAAUAUUACGACGC | -1.81 ± 0.48 | -2.42 ± 0.8
24 | UUCGAGCAAUAUUACGUGGC |  | -1.98 ± 0.64
25 | ACCGAGCAAUAUUACGAGAA | -2.51 ± 0.53 | 
26 | AUCGAGCAAUAUUACGAGUC | -4.23 ± 0.72 | -2.98 ± 0.6
27 | UGGUAGCAAUAUUACGAUUU | -1.14 ± 0.14 | -0.866 ± 0.14
28 | UCGCAGCAAUAUUACGGCUA | 0.198 ± 0.091 | 0.317 ± 0.098
29 | CGCCAGCAAUAUUACGGGGG | -3 ± 0.16 | -2.17 ± 0.2
30 | UCACAGCAAUAUUACGCGAU | -3.15 ± 0.54 | -2.4 ± 0.51
31 | CAUCAGCAAUAUUACGUUCC | -3.39 ± 1 | -2.47 ± 1.1
32 | UACUAGCAAUAUUACGCGCC | -1.73 ± 0.91 | 
33 | UGCGAGCAAUAUUACGAACC | -3.35 ± 1 | 
34 | UCAGAGCAAUAUUACGGUCC |  | -2.51 ± 0.76
35 | ACACAGCAAUAUUACGCAUG | -1.04 ± 0.075 | -0.692 ± 0.081
36 | UGCGAGCAAUAUUACGUUAC | -3.08 ± 0.64 | -2.33 ± 0.54
37 | GAGGAGCAAUAUUACGUCAC |  | -2.71 ± 0.61
38 | CCUAAGCAAUAUUACGCGCG | -3.42 ± 0.39 | -1.9 ± 0.25
39 | UGCAAGCAAUAUUACGGCUU | -4.56 ± 0.52 | 
40 | AUCUAGCAAUAUUACGUCUU | -0.776 ± 0.077 | 0.147 ± 0.1

Look-ups from the entries so far:
self-splicing fitness (ln) (30 °C) with CGCCAGCAAUAUUACGGGGG is entered as -3 ± 0.16
self-splicing fitness (ln) (30 °C) with AUCGAGCAAUAUUACGAGUC is entered as -4.23 ± 0.72
self-splicing fitness (ln) (37 °C) with UCACAGCAAUAUUACGCGAU is entered as -2.4 ± 0.51
self-splicing fitness (ln) (30 °C) with UAGAAGCAAUAUUACGCCAC is entered as -3.52 ± 0.54
self-splicing fitness (ln) (30 °C) with ACACAGCAAUAUUACGCAUG is entered as -1.04 ± 0.075

Continued.

Row | Sequence | self-splicing fitness (ln) (30 °C) | self-splicing fitness (ln) (37 °C)
41 | UGGGAGCAAUAUUACGCCGC |  | -0.886 ± 0.93
42 | CUAUAGCAAUAUUACGUAAA |  | -2.72 ± 0.61
43 | UCGUAGCAAUAUUACGUUAC | -2.09 ± 1.4 | -4.71 ± 0.72
44 | CCCUAGCAAUAUUACGCGCC | -4.44 ± 0.59 | 
45 | CUGUAGCAAUAUUACGGUAC | -3.7 ± 0.73 | -2.59 ± 0.28
46 | CCAGAGCAAUAUUACGCCAA | -2.7 ± 0.51 | 
47 | CGGGAGCAAUAUUACGUGGG |  | -2.84 ± 0.53
48 | GGGUAGCAAUAUUACGCAAA | -1.48 ± 0.74 | 0.0662 ± 0.52
49 | UAUAAGCAAUAUUACGUUCC |  | -2.16 ± 0.56
50 | CGAAAGCAAUAUUACGUAAC | -3.35 ± 1 | 
51 | UGAGAGCAAUAUUACGUGUA |  | -3.64 ± 0.73
52 | ACGGAGCAAUAUUACGGAAA | -4.51 ± 0.73 | 
53 | CGUUAGCAAUAUUACGGGAC | -2.68 ± 0.34 | -3.7 ± 0.39
54 | AAAGAGCAAUAUUACGGAAC | -4.97 ± 0.72 | 
55 | CUUAAGCAAUAUUACGCUGC | -4.13 ± 0.61 | 
56 | AGUAAGCAAUAUUACGCUUG | -4.62 ± 1 | -1.41 ± 0.71
57 | UGAGAGCAAUAUUACGCACU | -3.11 ± 0.32 | -2.02 ± 0.21
58 | CGGGAGCAAUAUUACGUGAA | -3.92 ± 0.52 | 
